Measurements from article PMC3546006.
No constants are given. Whether binding was seen depends on the method and setting. Binding seen in cells or lysates may run through a third protein. Some binding calls cover weakened binding; strength is not graded here.

Chains of the proteins cited; added tags and fusions are not shown.
UniProt Q02111: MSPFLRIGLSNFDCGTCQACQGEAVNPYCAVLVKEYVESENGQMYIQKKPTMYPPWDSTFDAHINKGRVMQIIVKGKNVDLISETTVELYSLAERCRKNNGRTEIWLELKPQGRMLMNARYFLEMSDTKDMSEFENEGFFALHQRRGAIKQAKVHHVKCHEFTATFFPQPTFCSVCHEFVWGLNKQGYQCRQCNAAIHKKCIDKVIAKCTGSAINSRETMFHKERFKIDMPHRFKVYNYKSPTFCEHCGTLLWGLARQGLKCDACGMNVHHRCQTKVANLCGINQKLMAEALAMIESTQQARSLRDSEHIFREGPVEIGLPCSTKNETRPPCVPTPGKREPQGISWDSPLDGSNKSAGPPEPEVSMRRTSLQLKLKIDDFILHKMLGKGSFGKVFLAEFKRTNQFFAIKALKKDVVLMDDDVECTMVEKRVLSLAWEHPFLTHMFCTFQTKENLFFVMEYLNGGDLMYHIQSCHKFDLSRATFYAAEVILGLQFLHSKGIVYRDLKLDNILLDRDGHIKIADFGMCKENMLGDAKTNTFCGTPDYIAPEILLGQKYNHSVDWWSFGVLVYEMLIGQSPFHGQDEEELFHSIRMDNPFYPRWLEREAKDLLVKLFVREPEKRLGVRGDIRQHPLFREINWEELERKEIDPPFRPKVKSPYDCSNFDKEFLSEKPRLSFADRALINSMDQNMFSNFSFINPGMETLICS

Biological target: T1, CYLD (endogenous, primary mouse CD3+ T cells) (mouse (endogenous in primary CD3+ T cells)) (UniProt Q80TQ2)
T1 sequence: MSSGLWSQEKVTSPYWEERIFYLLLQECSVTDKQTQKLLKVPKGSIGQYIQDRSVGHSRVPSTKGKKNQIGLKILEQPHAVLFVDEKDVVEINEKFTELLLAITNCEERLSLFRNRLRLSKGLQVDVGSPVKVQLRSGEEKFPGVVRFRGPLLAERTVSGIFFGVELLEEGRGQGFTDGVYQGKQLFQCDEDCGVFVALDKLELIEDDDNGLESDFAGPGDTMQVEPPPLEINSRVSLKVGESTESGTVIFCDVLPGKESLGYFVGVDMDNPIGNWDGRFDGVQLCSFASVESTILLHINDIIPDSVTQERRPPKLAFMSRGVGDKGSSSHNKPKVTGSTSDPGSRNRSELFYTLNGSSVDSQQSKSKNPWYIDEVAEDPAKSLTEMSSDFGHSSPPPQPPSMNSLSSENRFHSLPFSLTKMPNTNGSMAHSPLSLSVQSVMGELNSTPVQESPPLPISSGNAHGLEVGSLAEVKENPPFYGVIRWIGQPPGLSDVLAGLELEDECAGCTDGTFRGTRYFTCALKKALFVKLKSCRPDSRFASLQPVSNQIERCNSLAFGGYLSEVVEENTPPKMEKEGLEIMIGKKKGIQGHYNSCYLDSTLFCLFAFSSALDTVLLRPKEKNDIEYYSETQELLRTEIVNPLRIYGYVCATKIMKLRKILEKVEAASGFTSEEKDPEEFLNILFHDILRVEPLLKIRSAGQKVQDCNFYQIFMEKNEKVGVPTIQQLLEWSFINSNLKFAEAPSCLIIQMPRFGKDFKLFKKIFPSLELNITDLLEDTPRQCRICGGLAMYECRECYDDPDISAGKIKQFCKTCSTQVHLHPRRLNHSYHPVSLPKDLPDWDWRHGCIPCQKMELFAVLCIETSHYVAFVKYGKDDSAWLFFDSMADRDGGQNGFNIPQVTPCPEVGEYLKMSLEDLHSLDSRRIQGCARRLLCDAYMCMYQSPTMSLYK
Experiment: co-IP; endogenous proteins from lysates of unstimulated and CD3/CD28-activated primary mouse CD3+ T cells; 1% NP-40, 150 mM NaCl, 50 mM Tris pH 7.4, 5 mM EDTA; 4°C overnight, protein G Sepharose

- binding: binds
Substance: PKCθ (endogenous, primary mouse CD3+ T cells) (from UniProt Q02111 1-707)
